Source: PMC2289734 (The Journal of Cell Biology, 1992)

Tested on: export of VSV-G protein from the ER
Assay type: cell-based

CN[C@@H]1C[C@H]2O[C@@](C)([C@@H]1OC)n1c3ccccc3c3c4c(c5c6ccccc6n2c5c31)C(=O)NC4 [staurosporine]
antagonism of the inhibitory effect of mastoparan: does not antagonize
